# Reference: publication PMC12040169 (PLOS Biology, 2025)
# The other results are listed elsewhere or left out.
# System: T1, CTL2-GFP (C. trachomatis L2/434/Bu, GFP-expressing)
# T1 construct: L2/434/Bu, GFP-expressing
# Set-up: species or system HeLa; Intracellular C. trachomatis growth in HeLa cells, bulk GFP fluorescence relative to DMSO
# Conditions: bulk GFP, single well; 28.5 h, 10 µM; inhibitor
row,Compound,% of control remaining
1,O=C(O)CSc1nccn1Cc1ccccc1 [CBK262215],100%
2,Cc1ccc(S(=O)(=O)N2CC=CCC2)cc1 [CBK058443],103.218%
3,O=C(NC1CCCCC1)c1ccccc1NC(=O)C1CCCCC1C(=O)O (centres unmarked) [CBK267675],114.963%
4,CN(C(=O)c1c[nH]nc1-c1ccc(CNC(=O)c2cccc(Cl)c2)cc1)c1ccccc1 [CBK285597],117.44%
5,O=C(c1cnc[nH]1)N1CCn2nc(C(O)Cc3ccccc3)cc2C1 (centres unmarked) [CBK307558],114.977%
6,COc1ccc(C(C)C)cc1-c1cncc(N[C@@H](CO)C(C)C)n1 [CBK065356],151.843%
7,Cc1ccccc1Cn1c(CN2CCN(c3ccccc3)CC2)nc2c1c(=O)n(C)c(=O)n2C [CBK269488],156.435%
8,CCN(CC)c1c(C)nc2ccc(C(=O)NC3CCN(C)CC3)cn12 [CBK145965],103.953%
9,O=C(Nc1nn(Cc2c(F)cccc2Cl)cc1Cl)c1cccnc1 [CBK268154],102.021%
10,O=C(O)c1cccc(-c2nccnc2NCC2CC2)c1 [CBK038043],116.778%
11,Cc1ccc(-c2c[nH]c([C@@H]3COCCN3Cc3csnn3)n2)cc1 [CBK289302],127.993%
12,O=C(Nc1ccccc1)c1cccc(S(=O)(=O)NCc2cccs2)c1 [CBK058153],145.827%
13,O=C(Cc1ccsc1)N1CCCC2(CCN(Cc3ccccc3)C2)C1 (centres unmarked) [CBK136868],126.016%
14,O=C(Cn1ncn2nc(-c3ccccc3)cc2c1=O)Nc1ccc(F)cc1 [CBK287759],123.076%
15,CC(C)(C)C(=O)N1CCN(Cc2ccc3c(c2)OCO3)CC1 [CBK074842],109.241%
16,CCc1ccc2c(c1)C(CCNC(=O)c1cscc1C(F)(F)F)C(=O)N2 (centres unmarked) [CBK304728],124.328%
17,O=C(Cn1cc(-c2ccc(CN3CCCCC3)cc2)nn1)NCc1ccc(OC(F)F)cc1 [CBK167514],137.636%
18,Cc1cc(C(=O)N2CCC(Cc3ccccc3)CC2)n[nH]1 [CBK200187],104.26%
19,CCC(CN1CCOCC1)NC(=O)Cc1ccc2c(c1)CCC2 (centres unmarked) [CBK282810],98.31%
20,CC(C)(C)OC(=O)N1CCN(CCn2cc(C(=O)O)nn2)CC1 [CBK287112],117.826%
21,CC(=O)Nc1cccc(-c2cncc(NC3CCC(O)CC3)n2)c1 (centres unmarked) [CBK065404],141.977%

# A stretch from further up:
row,Compound,% of control remaining
19,CCC(CN1CCOCC1)NC(=O)Cc1ccc2c(c1)CCC2 (centres unmarked) [CBK282810],98.31%
20,CC(C)(C)OC(=O)N1CCN(CCn2cc(C(=O)O)nn2)CC1 [CBK287112],117.826%

# Further entries follow.

row,Compound,% of control remaining
1,Cc1cc(I)ccc1S(=O)(=O)NCc1ccccn1 [CBK262155],92.8964%
2,Cc1cc(NC(=O)CS(=O)(=O)Cc2cccc(C(F)(F)F)c2)no1 [CBK304520],102.794%
3,O=C(c1cc(-c2cccnc2)[nH]n1)N1CCC(c2ccccc2)C1 (centres unmarked) [CBK281849],138.866%
4,COCCN1C(=O)C2(CC(=O)N(CC(=O)C(C)(C)C)C2=O)c2ccccc21 (centres unmarked) [CBK075324],56.7091%
5,O=C(NCCOc1ccccc1)c1nccnc1-c1ccc(COc2ccc3c(c2)CCCC3)cc1 [CBK050852],197.378%
6,O=C(c1cscn1)N1CCc2ccccc2C1 [CBK200342],102.04%
7,COc1ccc(NC(=O)CN2CCN(S(=O)(=O)N(C)C)CC2)cc1 [CBK267465],105.159%
8,COc1ccc(C(=O)NC(c2ccc(OC)c(OC)c2)c2cc(Cl)c3cccnc3c2O)cc1 (centres unmarked) [CBK263992],111.348%
9,Cc1ccc(-c2noc(CNC(=O)CSc3ccccc3)n2)cc1 [CBK270199],147.067%
10,CCOC(=O)CSc1nnc(-c2ccc(Cl)cc2)o1 [CBK068845],101.376%
11,N#CCCn1cc(C(=O)N2CCCCC2)c(-c2cccc(Br)c2)n1 [CBK306202],166.999%
12,NNC(=O)CNS(=O)(=O)c1ccccc1 [CBK261967],134.498%
13,CN(C)CCNC(=O)c1ccc(-c2cnc3[nH]c(=O)n(C4CCCC4)c3n2)cc1 [CBK064957],107.758%
14,COc1cccc(CN(Cc2ccco2)Cc2[nH]cnc2C)c1 [CBK282495],126.759%
15,OCCNC(=S)Nc1ccc(Cl)cc1Cl [CBK265330],123.644%
16,O=C(c1ccccc1F)N1C[C@H](c2ccsc2)[C@H]2CN(Cc3cccs3)CC[C@H]21 [CBK285657],99.6438%
17,O=C(O)CNC(=O)[C@H]1CC[C@H](Cn2cnc3ccccc3c2=O)CC1 [CBK286714],124.182%
18,COc1ccc2nc(Nc3nc(C)c(C(C)=O)s3)sc2c1 [CBK287483],159.865%
19,CCCOc1ccc(C(=O)C(CN(CC)CC)Oc2ccccc2)cc1 (centres unmarked) [CBK011944C],91.1722%
20,Cc1cnn(CC2CCCCN2CC(=O)NCc2ccccn2)c1 (centres unmarked) [CBK304041],98.7572%
